This is an account of results in patent US20210347914A1.

Protein sequences, listed by entry. Tags and fused reporters are not part of them. Lines headed by an entry give the natural chain unless they say otherwise; changes in a name come on top.
UniProt P09936: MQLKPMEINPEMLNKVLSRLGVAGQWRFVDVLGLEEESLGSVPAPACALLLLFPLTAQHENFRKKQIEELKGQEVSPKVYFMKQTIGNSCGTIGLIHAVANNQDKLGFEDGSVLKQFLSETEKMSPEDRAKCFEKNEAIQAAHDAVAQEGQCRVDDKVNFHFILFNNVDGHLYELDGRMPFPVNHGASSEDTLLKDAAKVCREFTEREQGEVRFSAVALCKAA

Results are given in words; binding and its absence hold for the method and conditions named. Some binding calls cover weakened binding; strength is not graded here.

To fix the notation:
B1: UCH-L1-1 (antibody, V domains shown)
VH: QVQLQQPGSELVRPGASVKLSCKASGYTFTSYWMHWVKQRPGQGLEWIGNIYPGSGSTNYDEKFKSKATLTVDTSSSTAYMQLSSLTSEDSAVYYCTREDYWGQGTTLTVSS
VL: DVLMTQTPLSLPVSLGDQASISCRSSQNIVHSNGNTYLEWYLQKPGQSPKLLIYKVSNRFSGVPDRFSGSGSGTDFTLKISRVEAEDLGVYYCFQGSHVPFTFGSGTKLEIK
B2: UCH-L1-3 (antibody, V domains shown)
VH: QVQLQQPGSELVRPGASVKLSCRASGYTFTSYWIHWVKQRHGQGLEWIGNIYPGSGITNYDEKFKTKGTLTVDTSSSTVYMHLISLTSEDSAVYYCTREDYWGQGTTLTVSS
VL: DVLMTQTPLSLPVSLGDQASISCRSSQSIVHSNGNTYLEWYLQKPGQSPKLLIYKVSNRFSGVPDRFSGSGSGTDFTLKISGVETEDLGVYYCFQGSHVPFTFGGGTKLEIK
B3: UCH-L1-10 (antibody, V domains shown)
VH: EVQLQQSGPDLVKPGTSVKISCKTSGYTFTEYTMHWVKQSHGRSLEWIGGFNPNNGRTSYNQKFKGKATLTVDKSSSTAYMELRSLTSEDSAVYYCSRRLYRGFYFDYWGQGTTLTVSS
VL: DIVLTQSPASLAVSLGQRATISCRASESVDSYGNNLMHWYQQKPGQSPKLLIYRASNLESGIPGRFSGRGSRTDFSLTINPVEADDVATYYCQQSNGDPYTFGGGTKLEIK
B4: UCH-L1-6 (antibody, V domains shown)
VH: EVQLQQSGPELVKPGASVKISCKTSGYTFTEYTMHWVKQSHGKSLDWIGGINPNNGRTSYNQKFKGKATLTVDKSSSTAYMDFRSLTSEDSAVYYCARRLGRGFYFDYWGQGTTLTVSS
VL: DIVLTQSPASLAVSLGQRATISCRASESVESYGNNLIHWYQQKLGQPPKLLIYLSSNLEPGIPARFSGRGSRTDFTLTINPVEADDVATYYCQQSNGDPYTFGGGTKLEIR
B5: UCH-L1-7 (antibody, V domains shown)
VH: EVQLQQSGPELVKPGASVKISCKTSGYTFTEYTMHWVKQSHGKSLDWIGGINPNNGRTSYNQKFKGKATLTVDKSSSTAYMELRSLTSEDSAVYYCARRLGRGFYFDYWGQGTTLTVSS
VL: DIVLTQSPASLAVSLGQRATISCRASESVDSYGNNLMHWYQQKPGQPPKLLIYLSSNLESGIPARFSGRGSRTDFTLTINPVEADDVATYYCQQSNGDPYTFGGGTKLEIK
B6: UCH-L1-9 (antibody, V domains shown)
VH: EVQLQQSGPELVKPGASVKISCKTSGYTFTEYTMHWVKQSHGKSLDWIGGINPNNGRTSYNQKFKGKATLTVDKSSSTAYMELRSLTSEDSTVYYCARRLGRGFYFDYWGQGTTLTVSS
VL: DIVLTQSPASLAVSLGQRATISCRASESVDSYGNNFMHWYQQKPGQPPKLLIYLSSNLESGIPARFSGRGSRTDFTLTINPVEADDVATYYCQQSNGDPYTFGGGTKLEMK
B7: UCH-L1-8 (antibody, V domains shown)
VH: EVQLQQSGPDLVKPGTSVKISCKTSGYTFTEYTMHWVKQSHGRSLEWIGGLNPNNGRTSYNQKFKGKATLTVDKSSSIAYMELRSLTSEDSAVYYCARRLGRGFYFDYWGQGTTLTVSS
VL: DIVLTQSPASLAVSLGQRATISCRASESVDSYGNNLMHWYQQKPGQSPKLLIYRASNLESGIPGRFSGRGSRTDFTLTINPVEADDVATYYCQQSNGDPYTFGGGTKLEIK
B8: UCH-L1-4 (antibody, V domains shown)
VH: AVQLQQSGPELVKPGASVKISCKTSGDTFTEHFMNWVKQSHGESLEWIGIINPYTDGTNYDQKFKDKATLTVDKSSSTAYMELRSLTSEDSAVYYCARWGGDGEGYWGQGTTLTVSS
VL: DIVMTQAAPSVSVTPGESVSISCRSSKSLLHSNGNTYLYWFLKRPGQSPQLLIYRMSNLASGVPDRVSGSGSGTAFTLRISRVEAEDVGIYYCMQHLEYPLTFGAGTKLELK
B9: UCH-L1-5 (antibody, V domains shown)
VH: EVKLVESGGGSVQPGGSLSLSCAASGFTFTEYYMSWVRQFPGKALEWLAFIRNRAHGYTTEYSASVKGRFTISRDNSQSILYLQMNALRTEDSATYYCASSYGAPFAYWGQGTLVSVSA
VL: DIVMTQAAPSVPVTPGESVSISCRSSKSLLHSDGNTYLYWFLQRPGQSPQLLIYRMSNLASGVPDRFSGSGSGTAFTLRISRVEAEDVGVYYCMQHLEYPLTFGAGTKLELK
B10: UCH-L1-2 (antibody, V domains shown)
VH: EVMLVESGGGLVKPGGSLKLSCAASGFIFSSHAMSWIRQIPEKRLEWVATISSGGSNTYYPDSVKGRFTISRDNAKNILYLQMSSLRSEDTAIYYCTRHGEVRRGYYFDYWGQGTTLTVSS
VL: DIQMTQTPSSLSASLGDRVTISCSASQGITNYLNWYQQKPDGTVKLLIYYTSSLHSGVPSRFSGSGSGTDYSLTISNLEPEDFATYYCQHYSNLPWTFGGGTKLEIK
B11: UCH-L1-11 (antibody, V domains shown)
VH: EVQLVESGGGLVKPGGSLKLSCAASGFTFSRYAMSWVRQTPEKRLEWVATISTAGSYTYYPDSVKGRFTISRDNAKNTLYLQMSSLRSEDTALYYCARQGTGTYAMDYWGQGTSVTVSS
VL: DIQMTQSPASLSASVGETVTITCRASGNIHNYLAWYQQNQGKSPQLLVYNAKTLADGVPSRFSGSGSGTQYSLKINRLQPEDFGSYYCQHFWSTTWTFGGGTKLEIK
B12: UCH-L1-12 (antibody, V domains shown)
VH: EVQLVESGGGLVKPGGSLKLSCAASGFTFSKNAMSWVRQTPEKRLEWVATISTGGTYTYYPDSVKGQFTISRDNAKNTLYLQMSSLRSEDTAMYFCARQRTGTYAMDHWGQGTSVTVSS
VL: DIQMTQSPASLSASVGETVTITCRASGNIHNYLAWYQQKQGKSPQLLVYNANTLADGVPPRFSGSGSGTQYSLKVNSLQPEDFGNYYCQHFWSTTWTFGGGTRLEIK
B13: UCH-L1-13 (antibody, V domains shown)
VH: QVQLQQPGSELVRPGASVKLSCKASGYTFTSYWMHWVKQRPGQGLEWIGNIYPGSGTTNYDEKFKSKATLTVDTSSSTAYMQLNSLTSEDSAVYYCTREDYWGQGTTLTVSS
VL: DVLMTQSPLSLPVSLGDQASISCRSSQNIVHSNGNTYLEWYLQKPGQSPKLLIYKVSNRFSGVPDRFSGSGSGTDFTLKISRVEAEDLGVYYCFQGSHVPYTFGGGTKLEIK

The first assay concerns the target recombinant human UCH-L1 (human) (UniProt P09936). Description: hybridoma screen, indirect and sandwich ELISA (recombinant or CSF UCH-L1).
For B1, the binding entry was “binds”.
As to B2, the binding result is on record as “binds”.
Turning to B3, the binding result is reported as “binds”.
Same read-out and setting: next, B4: “binds”; B5: “binds”.
Still for that read-out and setting: next, B6: “binds”; B7: “binds”.
Same read-out and setting: next, B8: “binds”; B9: “binds”; B10: “binds”.
As for B11, the binding result is on record as “binds”.
Regarding B12, the binding result is “binds”.

Another assay has the same target. Description: hybridoma screen, western blot and indirect ELISA with recombinant UCH-L1.
As for B13, the binding entry is recorded as “binds”.
